Reference: patent US7060795 (KIMBERLY CLARK WORLDWIDE, dated 2006)
No constants are given. Whether binding was seen depends on the method and setting. Some binding calls cover weakened binding; strength is not graded here.

Chains of the proteins cited; added tags and fusions are not shown. Residues count along the entry.
UniProt P14780, residues 107-707: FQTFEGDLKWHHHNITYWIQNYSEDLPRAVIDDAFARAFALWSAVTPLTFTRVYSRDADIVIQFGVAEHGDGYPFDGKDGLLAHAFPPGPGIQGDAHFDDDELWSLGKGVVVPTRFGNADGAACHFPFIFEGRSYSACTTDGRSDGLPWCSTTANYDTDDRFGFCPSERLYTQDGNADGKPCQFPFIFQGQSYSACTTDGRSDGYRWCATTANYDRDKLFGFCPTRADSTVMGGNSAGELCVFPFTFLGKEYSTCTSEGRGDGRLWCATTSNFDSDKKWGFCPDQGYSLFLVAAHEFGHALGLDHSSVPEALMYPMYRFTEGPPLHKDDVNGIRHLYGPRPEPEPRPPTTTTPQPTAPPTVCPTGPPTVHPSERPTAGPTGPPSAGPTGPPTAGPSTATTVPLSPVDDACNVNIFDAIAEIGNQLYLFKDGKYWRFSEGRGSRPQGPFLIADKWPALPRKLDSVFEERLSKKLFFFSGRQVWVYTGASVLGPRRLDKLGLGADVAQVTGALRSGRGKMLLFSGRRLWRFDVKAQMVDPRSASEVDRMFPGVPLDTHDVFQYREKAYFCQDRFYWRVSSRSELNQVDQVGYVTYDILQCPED

How the values were obtained:
[1] = target: matrix metalloproteinase-9 (MMP-9) (UniProt P14780); assay: analytical gel filtration of the pre-formed complex (BioSelect 125); single species of 80 kDa apparent molecular weight
MMP-8 = assay: inhibition of hydrolysis of fluoresceinated collagen, Ki from Dixon plots
MMP-2 = assay: as above
MMP-3 = assay: as above
[2] = target: matrix metalloproteinase-9 (MMP-9) (UniProt P14780); assay: size exclusion HPLC (figure legend)
[3] = target: matrix metalloproteinase-9 (MMP-9) (UniProt P14780); assay: SPR, MMP-9 on CM-5 chip (figure legend)
[4] = target: matrix metalloproteinase-9 (MMP-9) (UniProt P14780); assay: analytical gel filtration (BioSelect 125 SEC column, PBS, 0.5 mL/min) after 30 min pre-incubation, against immediate injection
[5] = target: matrix metalloproteinase-9 (MMP-9) (UniProt P14780); assay: SPR (BiaCore, CM-5 chip), MMP-9 immobilised, SEQ ID NO:5 polypeptide flowed at 10 uL/min

binding [1]: binds
binding (MMP-8): binds
binding (MMP-2): binds
binding (MMP-3): binds
binding [2]: binds
binding [3]: binds
binding [4]: binds
binding [5]: binds
B1: SEQ ID NO:5 polypeptide (DST; Delta Synthetic TIMP), purified Fraction IV protein (designed binder)
chain: CSCSPVHPQQAFSNADVVIRAKAVSEKEVDSGNDIYGNPIKRIQYEIKQIKMFKGPEKDIEFIYTAPSSAVCGVSLDVGGKKEYCIAGKAEGDGKMHITLCDFICPW
notes: It was expressed in E. coli as an MBP fusion and cleaved with Factor Xa; It is monomeric by gel filtration; Three disulfide bonds; also called DST protein
